Laboratory results as given in the supplement of paper PMC7858590.
± gives the standard deviation of the averaged measurements. The full ranking holds about 3,800 compounds; the median of “cell shape (eccentricity) Z-score vs DMSO control” is about 1.1, and the lowest 2% start at about -4.7. This is one part of the list.

Each compound was assayed on human monocyte-derived macrophages (M0) (assay: cell shape (eccentricity) Z-score vs DMSO control; higher = more elongated, M2-like morphology). Details: 20 µM; 24 h; macrophage state: M0 (M-CSF).

Compound | cell shape (Z-score)
COc1ccc(/C=C/C(=O)O[C@@H]2[C@@H](O)[C@@H](O)[C@H](O[C@H]3[C@@H]4C=CO[C@@H](O[C@@H]5O[C@H](CO)[C@@H](O)[C@H](O)[C@H]5O)[C@@H]4[C@@]4(CO)O[C@@H]34)O[C@H]2C)cc1 | -1.63
CN/C(=C\[N+](=O)[O-])NCCSCc1ccc(CN(C)C)o1 | 1.62
C[C@H]1CC2C([C@@H](O)C[C@@]3(C)C2CC[C@]3(O)C(=O)COC(=O)CCC(=O)O)[C@@]2(C)C=CC(=O)C=C12 (stereo partly specified) | 0.0575
O=c1n(CCCN2CCN(c3cccc(Cl)c3)CC2)nc2ccccn12 | -2.03
CC(=O)OC[C@@]12C(=O)C[C@@H](C)[C@]3(C[C@@H](c4ccoc4)OC3=O)[C@H]1CC[C@H](O)[C@]21CO1 | -1.02
CCN(CCO)CCCOc1ccc2c(Nc3cc(CC(=O)Nc4cccc(F)c4)[nH]n3)ncnc2c1 | 1.97
CCCc1nc(C(C)(C)O)c(C(=O)OCc2oc(=O)oc2C)n1Cc1ccc(-c2ccccc2-c2nn[nH]n2)cc1 | 1.58
COc1c(O)cc2c(c1O)C(=O)OC(C)C2Oc1cc2c(c(O)c1OC)C(=O)OC(C)C2O (stereo unspecified) | 4.46
O=C1C=CC(O)(/C=C/C(=O)OC[C@H]2O[C@@H](Oc3ccc(O)cc3)[C@H](O)[C@@H](OC(=O)/C=C/C3(O)C=CC(=O)C=C3)[C@@H]2O)C=C1 | -1.44
c1ccc(CNc2nc(NCc3ccccc3)c3ccccc3n2)cc1 | 4.58
Nc1ncnc2nc(-c3ccc(N4CCOCC4)nc3)cc(-c3cccc(Br)c3)c12 | 0.843
CCCCCCCCCCCCCCCC(=O)NCCO | 0.0559
Cn1cnc([N+](=O)[O-])c1Sc1[nH]cnc2ncnc1-2 | 1.32
Cc1[nH]c2ccccc2c1C(Nc1ccccn1)c1ccc(Cl)cc1 (stereo unspecified) | 4.07
NC12CC3CC(CC(C3)C1)C2 | 0.0325
NC(=O)C1C(=O)C[C@@H]2C[C@@H]3Cc4cccc(O)c4C(=O)C3C(=O)[C@]2(O)C1=O (stereo partly specified) | 3.39
COc1cc2nc(N(C)CCCNC(=O)C3CCCO3)nc(N)c2cc1OC (stereo unspecified) | 0.276
c1ccc(-c2nnc(N3CCOCC3)nc2-c2ccccc2)cc1 | 5.41
CC1OC(=O)CC2C(C(=O)O)=CC3(O)CC(C)(C)CC123 (stereo unspecified) | 2.24

Compound | cell shape (Z-score)
O=c1cc(-c2ccc(O)cc2)oc2c(C3OCC(O)C(O)C3O)c(O)c(C3OC(CO)C(O)C(O)C3O)c(O)c12 (stereo unspecified) | -0.877
Cc1cc(=O)n(-c2ccccc2)n1C | 3.06
COc1ccc(CO[C@H]2O[C@H](CO)[C@@H](O)[C@H](O)[C@H]2NC(C)=O)c2cc(C)oc12 | -0.347 ± 0.37
Clc1ccc(COC(Cn2ccnc2)c2ccc(Cl)cc2Cl)c(Cl)c1 (stereo unspecified) | 0.543
CC(C)[C@@H]1CC[C@@H](C)C[C@@H]1P(=O)(c1ccccc1)c1ccccc1 | 1.51
CN(C)CCCSc1ccccc1NC(=O)/C=C/c1ccccc1 | -0.586
CNC[C@@H]1Oc2ccc(NC(=O)C3CCCCC3)cc2C(=O)N([C@@H](C)CO)C[C@@H]1C | 2.88
C=CC(=O)N1CCC[C@@H](n2nc(-c3ccc(Oc4ccccc4)cc3)c3c(N)ncnc32)C1 | 10.2
CC1(C)CC[C@]2(C(=O)O[C@@H]3O[C@H](CO)[C@@H](O)[C@H](O)[C@H]3O)CC[C@]3(C)C(=CCC4[C@@]5(C)C[C@@H](O)[C@H](O)C(C)(C)C5CC[C@]43C)C2[C@@H]1O (stereo partly specified) | 1.97
CC(=O)c1ccc(S(=O)(=O)NC(=O)NC2CCCCC2)cc1 | 1.71
CC(=O)N(O)CCCCCNC(=O)CCC(=O)N(O)CCCCCNC(=O)CCC(=O)N(O)CCCCCN | 0.99
Nc1ncn([C@H]2C[C@H](O)[C@@H](CO)O2)c(=O)n1 | 0.463
CC(C)(C(=O)c1cccnc1)c1cccnc1 | 3.09
COc1ccc2oc(-c3ccccc3OC)cc(=O)c2c1 | 6.84
COC(=O)c1cc(O)cc(O)c1C(=O)c1c(O)cc(C)cc1O | 0.523
CC1(C)O[C@@H]2CC3C4C[C@H](F)C5=CC(=O)C=C[C@]5(C)[C@@]4(F)[C@@H](O)C[C@]3(C)[C@]2(C(=O)CO)O1 (stereo partly specified) | -2.94
CC(=O)OCCNC(=O)c1cccnc1 | -3.76
COc1c(O)cc2c(c1O)C(=O)OC(C)C(O)c1c(O)c(O)c(OC)c(O)c1C(=O)OC(C)C2O (stereo unspecified) | 0.31
CC(C)=CCCC(C)(OC1OC(COC2OC(CO)C(O)C2O)C(O)C(O)C1O)C1CCC2(C)C1C(O)CC1C3(C)CCC(OC4OC(CO)C(O)C(O)C4OC4OC(CO)C(O)C(O)C4O)C(C)(C)C3CCC12C (stereo unspecified) | -0.485

Compound | cell shape (Z-score)
COc1ccc(-c2ccc3c(N4CCOCC4)nc(N4C[C@@H](C)O[C@@H](C)C4)nc3n2)cc1CO | 0.131
C/C=N/N(C)C=O | 0.886
CN(Cc1cnc2nc(N)nc(N)c2n1)c1ccc(C(=O)NC(CCC(=O)O)C(=O)O)cc1 (stereo unspecified) | 4.47
CCOC(=O)C1=CC2(CC)CCCN3CCc4c(n1c1ccccc41)C32 (stereo unspecified) | 0.205
CCC(NC(C)C)C(O)c1ccc(O)c(O)c1 (stereo unspecified) | 2.97
CC(C)NC[C@H](O)COc1ccc(CC(N)=O)cc1 | 3.01
O=C(O)C=Cc1ccc(Cn2ccnc2)cc1 | -1.31
N#CC(=Cc1ccc(O)c(O)c1)C(N)=O | 0.0388
CCC(=C/[C@H](C)C/C=C/C(C)=C/[C@@H](C)C(=O)[C@@H](C)[C@H](O)[C@@H](C)C/C(C)=C/C(=O)O)/C=C/[C@@H]1OC(=O)C=C[C@@H]1C | 5.4
CCC(C)C(=O)O[C@H]1C[C@H](O)C=C2C=C[C@H](C)[C@H](CC[C@@H](O)C[C@@H](O)CC(=O)O)C21 (stereo partly specified) | -0.754
COc1cc2ccc(=O)oc2c(O[C@@H]2O[C@H](CO)[C@@H](O)[C@H](O)[C@H]2O)c1O | -0.0817
CCOC(=O)C(C)(C)Oc1ccc(Cl)cc1 | 1.93
CN1CCN(C2=Nc3ccccc3Sc3ccc(Cl)cc32)CC1 | 0.462
CNC(=O)C1OC(n2cnc3c(NCc4cccc(I)c4)ncnc32)C(O)C1O (stereo unspecified) | 0.489
C=C1[C@H]2CC[C@]3(O)[C@@](CC[C@@H]4[C@](C)(C(=O)O)CCC[C@]43C)(C2)[C@H]1OC(=O)/C(C)=C\C | -0.341
COc1ccc2[nH]c(I)c(CCNC(C)=O)c2c1 | 4.27
CC1(C)CN=C(N2CCN(c3ncnc4sc5c(c34)CCCC5)CC2)S1 | 3.14
CC(C)(O)CCCC(C)(O)c1ccc(C(=O)O)cc1O (stereo unspecified) | 1.84

An excerpt of these results, tab-delimited:
Compound	cell shape (Z-score)
Cc1[nH]c2ccccc2c1C(Nc1ccccn1)c1ccc(Cl)cc1 (stereo unspecified)	4.07
NC12CC3CC(CC(C3)C1)C2	0.0325
NC(=O)C1C(=O)C[C@@H]2C[C@@H]3Cc4cccc(O)c4C(=O)C3C(=O)[C@]2(O)C1=O (stereo partly specified)	3.39
COc1cc2nc(N(C)CCCNC(=O)C3CCCO3)nc(N)c2cc1OC (stereo unspecified)	0.276
